# The inconclusive results got no clear call from the source; some entries with a clear call stand among them for comparison. For some of these results: Potencies beside an inconclusive call are fits to weak or partial responses and may not hold up. Calls of active or inactive are those of the source. How the source made its calls: active means hit-call score of the fitted dose curve at least 0.9, where 1 is the maximum; inconclusive means response in the unintended direction; inactive means score below 0.9.
# Sequences of proteins named here, by UniProt entry; tags and fusion partners are left off. A change or cut given only in a name is not applied to a line headed by its entry.
# UniProt P07948: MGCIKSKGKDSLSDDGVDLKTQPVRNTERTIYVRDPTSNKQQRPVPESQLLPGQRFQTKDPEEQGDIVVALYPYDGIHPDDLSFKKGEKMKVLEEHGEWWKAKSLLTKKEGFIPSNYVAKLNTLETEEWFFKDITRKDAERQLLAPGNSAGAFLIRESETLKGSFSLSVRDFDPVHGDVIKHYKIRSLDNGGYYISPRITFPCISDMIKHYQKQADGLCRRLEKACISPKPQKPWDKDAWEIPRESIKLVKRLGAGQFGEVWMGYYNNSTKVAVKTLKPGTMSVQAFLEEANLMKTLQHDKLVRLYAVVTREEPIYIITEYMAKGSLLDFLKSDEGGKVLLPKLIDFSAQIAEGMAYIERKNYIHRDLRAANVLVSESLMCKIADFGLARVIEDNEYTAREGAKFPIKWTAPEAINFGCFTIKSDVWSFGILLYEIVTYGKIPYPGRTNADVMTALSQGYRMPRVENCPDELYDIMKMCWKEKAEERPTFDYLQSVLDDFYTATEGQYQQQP
# UniProt P27361, whole entry, looked up: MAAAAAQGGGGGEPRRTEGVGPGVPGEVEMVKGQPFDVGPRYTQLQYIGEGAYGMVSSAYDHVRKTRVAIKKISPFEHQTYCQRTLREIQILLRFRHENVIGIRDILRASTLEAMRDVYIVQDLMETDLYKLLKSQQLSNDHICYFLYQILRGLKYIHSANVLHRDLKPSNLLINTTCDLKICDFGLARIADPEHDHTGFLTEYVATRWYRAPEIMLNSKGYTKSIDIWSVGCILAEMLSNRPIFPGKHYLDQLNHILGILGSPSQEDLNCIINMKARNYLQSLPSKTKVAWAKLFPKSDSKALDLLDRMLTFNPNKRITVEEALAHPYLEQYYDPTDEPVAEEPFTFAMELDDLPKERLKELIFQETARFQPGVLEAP
# UniProt O75582, whole entry, looked up: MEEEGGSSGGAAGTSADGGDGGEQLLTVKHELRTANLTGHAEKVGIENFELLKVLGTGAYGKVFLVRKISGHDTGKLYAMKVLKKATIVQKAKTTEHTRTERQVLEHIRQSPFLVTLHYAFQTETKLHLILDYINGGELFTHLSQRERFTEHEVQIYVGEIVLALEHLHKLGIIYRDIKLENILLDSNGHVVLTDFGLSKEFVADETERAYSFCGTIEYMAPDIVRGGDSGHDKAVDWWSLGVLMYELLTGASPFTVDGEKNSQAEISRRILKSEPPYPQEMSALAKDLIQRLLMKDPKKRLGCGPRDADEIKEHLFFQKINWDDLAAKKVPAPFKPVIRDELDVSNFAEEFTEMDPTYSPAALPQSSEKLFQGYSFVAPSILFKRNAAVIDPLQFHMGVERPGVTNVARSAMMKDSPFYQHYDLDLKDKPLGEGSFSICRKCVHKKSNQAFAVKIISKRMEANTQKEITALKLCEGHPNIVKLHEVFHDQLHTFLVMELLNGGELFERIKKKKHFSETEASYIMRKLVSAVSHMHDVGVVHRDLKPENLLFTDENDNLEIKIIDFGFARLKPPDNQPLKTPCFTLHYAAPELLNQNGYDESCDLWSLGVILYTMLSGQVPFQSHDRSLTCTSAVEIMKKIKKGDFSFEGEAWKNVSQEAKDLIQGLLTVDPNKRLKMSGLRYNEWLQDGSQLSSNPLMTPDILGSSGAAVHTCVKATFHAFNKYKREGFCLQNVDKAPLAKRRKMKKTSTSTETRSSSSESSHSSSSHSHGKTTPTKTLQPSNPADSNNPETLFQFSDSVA
# UniProt P27815: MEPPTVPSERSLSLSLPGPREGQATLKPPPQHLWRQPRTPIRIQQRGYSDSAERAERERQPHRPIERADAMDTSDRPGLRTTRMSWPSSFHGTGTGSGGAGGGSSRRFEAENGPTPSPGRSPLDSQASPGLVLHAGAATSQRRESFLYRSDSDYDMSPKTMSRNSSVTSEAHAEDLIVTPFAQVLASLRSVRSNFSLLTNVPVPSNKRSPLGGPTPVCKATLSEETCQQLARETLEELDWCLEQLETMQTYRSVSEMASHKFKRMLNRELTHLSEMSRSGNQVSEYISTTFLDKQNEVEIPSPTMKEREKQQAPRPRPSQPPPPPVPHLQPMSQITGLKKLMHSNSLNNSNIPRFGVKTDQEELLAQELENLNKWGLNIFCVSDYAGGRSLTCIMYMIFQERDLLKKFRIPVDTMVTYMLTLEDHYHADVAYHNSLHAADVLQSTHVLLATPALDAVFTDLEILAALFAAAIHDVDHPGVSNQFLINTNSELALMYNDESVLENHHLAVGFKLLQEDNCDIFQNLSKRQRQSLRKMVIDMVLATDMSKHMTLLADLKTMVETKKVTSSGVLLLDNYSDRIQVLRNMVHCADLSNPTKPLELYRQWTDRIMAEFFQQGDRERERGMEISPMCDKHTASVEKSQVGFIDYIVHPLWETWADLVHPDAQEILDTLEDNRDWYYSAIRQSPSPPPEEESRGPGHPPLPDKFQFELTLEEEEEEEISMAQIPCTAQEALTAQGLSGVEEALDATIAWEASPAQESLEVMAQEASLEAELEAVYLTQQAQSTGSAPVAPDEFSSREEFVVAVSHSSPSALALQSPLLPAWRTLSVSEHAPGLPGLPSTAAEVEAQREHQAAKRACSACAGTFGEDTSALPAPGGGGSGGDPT
# UniProt P14780: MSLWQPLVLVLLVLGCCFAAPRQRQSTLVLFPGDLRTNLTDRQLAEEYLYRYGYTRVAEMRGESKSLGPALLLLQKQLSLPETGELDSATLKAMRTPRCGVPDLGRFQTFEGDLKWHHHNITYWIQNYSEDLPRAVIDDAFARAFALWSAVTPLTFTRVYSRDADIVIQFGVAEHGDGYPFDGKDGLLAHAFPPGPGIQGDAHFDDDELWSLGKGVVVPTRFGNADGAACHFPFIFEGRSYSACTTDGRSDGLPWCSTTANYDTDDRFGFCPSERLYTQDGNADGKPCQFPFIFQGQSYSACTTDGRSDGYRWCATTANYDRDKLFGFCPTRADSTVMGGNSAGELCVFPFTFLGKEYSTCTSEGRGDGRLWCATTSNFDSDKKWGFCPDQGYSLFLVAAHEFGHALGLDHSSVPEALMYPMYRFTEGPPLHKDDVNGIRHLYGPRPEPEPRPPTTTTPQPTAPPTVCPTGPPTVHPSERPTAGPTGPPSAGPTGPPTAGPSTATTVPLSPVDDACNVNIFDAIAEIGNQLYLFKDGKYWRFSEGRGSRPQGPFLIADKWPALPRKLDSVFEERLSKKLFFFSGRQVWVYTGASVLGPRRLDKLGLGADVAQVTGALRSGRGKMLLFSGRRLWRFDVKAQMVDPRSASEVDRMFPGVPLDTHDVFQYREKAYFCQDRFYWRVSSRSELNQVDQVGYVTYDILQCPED
# UniProt P09237: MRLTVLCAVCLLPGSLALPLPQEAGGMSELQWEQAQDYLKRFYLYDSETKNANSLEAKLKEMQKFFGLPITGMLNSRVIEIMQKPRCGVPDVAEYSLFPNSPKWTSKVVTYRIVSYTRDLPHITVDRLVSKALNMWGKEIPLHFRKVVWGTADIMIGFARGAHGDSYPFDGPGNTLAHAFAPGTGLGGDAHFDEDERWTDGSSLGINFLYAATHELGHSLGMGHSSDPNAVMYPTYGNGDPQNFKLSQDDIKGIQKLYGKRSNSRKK
# Legend:
# [1] = target: human LYN Proto-Oncogene, Src family Tyrosine Kinase (LynA), LYN (gene 4067) (UniProt P07948); assay: NVS_ENZ_hLynA: NovaScreen (NVS) Enzymatic Assay for human LYN Proto-Oncogene, Src family Tyrosine Kinase (LynA) (AID 2283173)
# Summary of the method: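 Recombinant kinase with fluorescent substrate; product separated from substrate by electrophoretic mobility shift and read 1 h after dosing. Duplicate screen at 25 uM, then concentration-response up to 50 uM; activity scored as signal loss against DMSO.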
# [2] = target: Mitogen-activated protein kinase 3 (Homo sapiens) (UniProt P27361); assay: NVS_ENZ_hMAPK3: NovaScreen (NVS) Enzymatic Assay for human Mitogen-Activated Protein Kinase 3 (MAPK 3) (AID 2283177)
# Summary of the method: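 Chemicals were first tested in duplicate at 25 uM, with hits re-run as concentration series (max 50 uM). Recombinant enzyme activity, measured 1 h post-dose in a cell-free format, was read by fluorescence/mobility shift relative to DMSO.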
# [3] = target: human Mitogen- and Stress-activated Protein Kinase-1 (Msk1), RPS6KA5 (gene 9252) (UniProt O75582); assay: NVS_ENZ_hMsk1: NovaScreen (NVS) Enzymatic Assay for human Mitogen- and Stress-activated Protein Kinase-1 (Msk1) (AID 2283187)
# Summary of the method: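 Chemicals first run in duplicate at 25 uM, with actives followed up in singleton concentration series to 50 uM maximum. Enzyme activity came from substrate/product mobility-shift separation with fluorescence detection after 1 h incubation of the recombinant protein.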
# [4] = target: human Phosphodiesterase 4A1 (PDE4A1), PDE4A (gene 5141) (UniProt P27815); assay: NVS_ENZ_hPDE4A1: NovaScreen (NVS) Enzymatic Assay for human Phosphodiesterase 4A1 (PDE4A1) (AID 2283191)
# Summary of the method: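 Fluorescent substrate turnover by recombinant PDE4A1 read after 1 h by mobility-shift separation. Primary duplicate screen at 25 uM; hits retested in concentration series with a 50 uM maximum, relative to DMSO.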
# [5] = target: Collagenase 3 (Homo sapiens) (UniProt P45452); assay: NVS_ENZ_hMMP13: NovaScreen (NVS) Enzymatic Assay for human Matrix Metalloproteinase-13 (MMP13) (AID 2283182)
# Summary of the method: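 Recombinant MMP13 cleaving fluorescent substrate, cell-free, measured 1 h after dosing. Primary duplicate screen at 25 uM; actives tested in concentration-response up to 50 uM; loss of signal relative to DMSO.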
# [6] = target: human Matrix Metalloproteinase-9 (MMP9), MMP9 (gene 4318) (UniProt P14780); assay: NVS_ENZ_hMMP9: NovaScreen (NVS) Enzymatic Assay for human Matrix Metalloproteinase-9 (MMP9) (AID 2283190);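 further: cell-free recombinant MMP9 protease activity read by fluorescent substrate signal; active means inhibition seen as loss of fluorescence signal versus DMSO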
# Summary of the method: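 Screening concentration 25 uM, duplicate wells, then dose series for confirmation. Cell-free enzymatic reaction measured by fluorescence intensity 1 h post-dosing; decreased signal versus DMSO taken as activity.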
# [7] = target: human Matrix Metalloproteinase-7 (MMP7), MMP7 (gene 4316) (UniProt P09237); assay: NVS_ENZ_hMMP7: NovaScreen (NVS) Enzymatic Assay for human Matrix Metalloproteinase-7 (MMP7) (AID 2283183)
# Summary of the method: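 Compounds first tested at 25 uM in duplicate, then at up to 50 uM in concentration series if active. Protease activity measured by fluorescence intensity 1 h after dosing, with fitting relative to DMSO.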
smiles,measurement,setting,value
CN(C)C(=O)NC1(c2ccccc2)CCN(CCC[C@]2(c3ccc(Cl)c(Cl)c3)CCCN(C(=O)c3ccccc3)C2)CC1,outcome,[1],inactive
same,outcome,[2],inactive
same,outcome,[3],inactive
CCCCCCCCCCCCCC[P+](CCCC)(CCCC)CCCC,AC50,[2],active: 20.2 µM
N#C[C@@H]1CC(F)(F)CN1C(=O)CNC1CC2CCC(C1)N2c1ncccn1 (stereo not given in full),AC50,[1],inconclusive: 25 µM
same,AC50,[4],inconclusive: 4.96 µM
O=C(O)Cc1cc(I)c(Oc2cc(I)c(O)c(I)c2)c(I)c1,AC50,[1],inconclusive: 27 µM
c1ccc2ccccc2c1,outcome,[2],inactive
O=P(OC(CCl)CCl)(OC(CCl)CCl)OC(CCl)CCl,AC50,[2],inconclusive: 10.3 µM
CCCOc1ccc(S(=O)(=O)N2CCN(CC)CC2)cc1-c1nc2c(CC)n(Cc3ccccn3)nc2c(=O)[nH]1,AC50,[5],inconclusive: 41.8 µM
CC[C@H](c1ccc(O)cc1)[C@@H](CC)c1ccc(O)cc1,AC50,[5],inconclusive: 0.37 µM
O=C(c1ccc(OCCN2CCCCC2)cc1)c1c(-c2ccc(O)cc2)sc2cc(O)ccc12,AC50,[5],active: 17.4 µM
O=C(c1ccccc1)C1CCCCC1,AC50,[5],inconclusive: 25 µM
CCCCCCCCCCCCCCCCO,AC50,[2],inconclusive: 6.67 µM
OC1CCC(C2CCCCC2)CC1 (stereo not given),AC50,[2],inconclusive: 25 µM
N#CSCSc1nc2ccccc2s1,outcome,[1],inactive
same,AC50,[6],inconclusive: 0.0474 µM
CCCCCCCCCCCCCCOS(=O)(=O)O,AC50,[1],inconclusive: 25 µM
Cc1ccc(N)cc1O,outcome,[1],inactive
same,AC50,[2],active: 20.1 µM
CCCC(=O)OCCC(C)C,outcome,[2],inactive
O=C(O)c1cccc(Oc2ccccc2)c1,outcome,[1],inactive
same,AC50,[2],inconclusive: 8.74 µM
same,outcome,[7],inactive
same,AC50,[3],inconclusive: 25 µM

# Two successive entries from above:
smiles,measurement,setting,value
N#CSCSc1nc2ccccc2s1,outcome,[1],inactive
same,AC50,[6],inconclusive: 0.0474 µM

# Source: PubChem BioAssay (EPA / NIEHS)
